Reference: publication PMC5176366
Results are given in words; binding and its absence hold for the method and conditions named. Binding seen in cells or lysates may run through a third protein. Binding can be weak; no strength is given.

Protein sequences, listed by entry. Tags and fused reporters are not part of them. Lines headed by an entry give the natural chain unless they say otherwise; changes in a name come on top.
UniProt C4M8X7: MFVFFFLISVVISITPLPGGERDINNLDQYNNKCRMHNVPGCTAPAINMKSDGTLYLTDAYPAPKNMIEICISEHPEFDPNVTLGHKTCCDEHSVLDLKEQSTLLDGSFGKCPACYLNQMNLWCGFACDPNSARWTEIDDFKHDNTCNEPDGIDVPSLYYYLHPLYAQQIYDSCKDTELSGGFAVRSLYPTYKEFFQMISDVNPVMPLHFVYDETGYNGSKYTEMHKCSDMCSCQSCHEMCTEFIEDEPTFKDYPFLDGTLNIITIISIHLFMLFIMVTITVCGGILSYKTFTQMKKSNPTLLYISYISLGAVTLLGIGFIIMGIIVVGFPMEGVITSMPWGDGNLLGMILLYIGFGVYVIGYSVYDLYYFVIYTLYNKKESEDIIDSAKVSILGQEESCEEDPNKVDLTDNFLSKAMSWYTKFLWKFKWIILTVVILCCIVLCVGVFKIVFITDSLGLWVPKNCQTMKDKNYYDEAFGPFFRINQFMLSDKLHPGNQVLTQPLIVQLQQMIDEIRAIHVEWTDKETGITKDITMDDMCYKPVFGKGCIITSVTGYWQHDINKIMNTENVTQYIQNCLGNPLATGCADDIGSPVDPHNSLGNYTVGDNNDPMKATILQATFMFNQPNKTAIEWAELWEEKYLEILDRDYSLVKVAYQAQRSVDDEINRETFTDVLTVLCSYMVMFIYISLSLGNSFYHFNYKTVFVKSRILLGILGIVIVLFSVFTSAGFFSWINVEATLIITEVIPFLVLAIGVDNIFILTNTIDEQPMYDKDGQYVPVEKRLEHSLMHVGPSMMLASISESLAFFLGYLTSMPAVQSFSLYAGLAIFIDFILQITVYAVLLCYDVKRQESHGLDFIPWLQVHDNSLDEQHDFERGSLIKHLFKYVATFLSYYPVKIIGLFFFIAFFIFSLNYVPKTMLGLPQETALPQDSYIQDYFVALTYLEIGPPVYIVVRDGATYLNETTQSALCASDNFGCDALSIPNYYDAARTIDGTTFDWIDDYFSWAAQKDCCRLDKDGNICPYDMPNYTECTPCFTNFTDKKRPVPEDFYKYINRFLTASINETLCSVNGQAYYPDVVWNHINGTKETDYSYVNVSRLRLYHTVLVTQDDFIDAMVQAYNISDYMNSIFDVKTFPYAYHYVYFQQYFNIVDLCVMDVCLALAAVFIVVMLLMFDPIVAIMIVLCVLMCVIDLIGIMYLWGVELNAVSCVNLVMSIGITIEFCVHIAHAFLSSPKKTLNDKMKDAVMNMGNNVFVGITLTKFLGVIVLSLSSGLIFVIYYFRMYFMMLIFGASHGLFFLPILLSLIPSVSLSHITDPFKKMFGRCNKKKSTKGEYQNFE
UniProt Q9BLE8: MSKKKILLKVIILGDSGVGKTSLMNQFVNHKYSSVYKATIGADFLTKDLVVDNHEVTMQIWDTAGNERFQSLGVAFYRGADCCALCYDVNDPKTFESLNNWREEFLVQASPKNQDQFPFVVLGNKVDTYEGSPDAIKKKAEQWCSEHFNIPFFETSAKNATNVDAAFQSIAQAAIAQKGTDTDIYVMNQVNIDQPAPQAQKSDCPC

Molecular target: EhNPC1 (Entamoeba histolytica (endogenous in trophozoites)) (UniProt C4M8X7)
Experiment: co-IP; trophozoites in basal condition or after 5+60 min of erythrophagocytosis, lysed in 10 mM Tris-HCl, 50 mM NaCl with protease inhibitors by freeze-thawing; immunoprecipitation with α-EhNPC1 or α-EhNPC2 antibody (preimmune serum as control) and protein G-agarose; western blot of the …

Substance: EhRab7A (from UniProt Q9BLE8)
- binding: binds
